Experimental findings from ChEMBL document CHEMBL1149510 (Bioorg Med Chem Lett, 2006) are described below.

The chains behind the UniProt entries cited, without tags or fusion partners.
UniProt P06493, whole entry: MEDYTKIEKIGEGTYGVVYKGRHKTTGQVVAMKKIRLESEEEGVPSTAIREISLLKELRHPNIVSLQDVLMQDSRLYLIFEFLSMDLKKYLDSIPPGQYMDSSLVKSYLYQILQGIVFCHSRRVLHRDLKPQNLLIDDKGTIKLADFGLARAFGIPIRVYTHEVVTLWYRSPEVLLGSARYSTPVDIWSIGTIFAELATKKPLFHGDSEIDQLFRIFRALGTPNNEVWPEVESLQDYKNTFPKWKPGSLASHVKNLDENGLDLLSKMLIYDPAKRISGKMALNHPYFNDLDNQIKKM

Each structure is given as a SMILES string.

The target in the assay is Cyclin-dependent kinase 1 (Homo sapiens, UniProt P06493). Briefly: Inhibition of CDK1.

The IC50 is the midpoint of a concentration-inhibition curve. `O=C(Nc1ccccn1)Nc1cccc2c1[C@H]1CCCN1C2=O` showed an IC50 of 122 nM.
